The list is a part of this screen's results and no random one: it gathers tests that were run many times, whatever their T/C, doses with no T/C, and many T/C values between a quarter and a half above the control. Other doses and runs of a compound stand elsewhere. T/C is the treated group as % of the vehicle group. Schedules are NCI's codes, read here as Q, the interval in days (D) or hours (H), X, the number of doses. Some entries give survivors of the animals treated and no T/C: the source files T/C as zero there, which appears to mark a toxic dose or a test without result, not a measured value. Some doses without a T/C left all or most animals alive at the check, yet need not have been tolerated: the source hardly ever lists a survival T/C far under the control, and the zero likely stands for such cases as well. Counts of survivors are from the toxicity check (mostly the fifth day) where no day follows; animals may have died later. Some doses were run more than once; the results are listed from low to high. Where survival is the endpoint, this PubChem deposit counts one and a half times the control or more as active, and values a quarter to a half above the control carry no call in these data; other NCI protocols may use other cut-offs. Additions like (4×) count equal records among those shown. Some T/C values are followed by the survivors on the day toxicity was checked, most often the fifth; without a count, all were alive then.

This test concerns BDF1 mice, M5076 sarcoma s.c., survival/tumor T/C. The test can be described thus: NCI In Vivo Anticancer Drug Screen. Data for tumor model Sarcoma M5076 (subcutaneous) in B6D2F1 (BDF1) mice. As to the method:
The antitumor activity of compounds was measured in mice bearing transplantable tumors. Survival or tumor size were measured and the results are expressed as the measurement made in the treated group (T) divided by the measurement made in the vehicle treated control group (C). The tumor model used in this assay is Sarcoma M5076 (subcutaneous) in B6D2F1 (BDF1) mice

Setting [1] is: T/C endpoint: median survival time, dose: 100.0 mg/kg/injection, schedule: Q01DX009 (ip), vehicle: saline with Tween-80, higher T/C = longer survival.
The mark [2] stands for this setting: T/C endpoint: median survival time, dose: 200.0 mg/kg/injection, schedule: Q01DX009 (ip), vehicle: saline with Tween-80, higher T/C = longer survival.
The mark [3] stands for this setting: T/C endpoint: median tumor weight (est.), dose: 200.0 mg/kg/injection, schedule: Q01DX009 (ip), vehicle: saline with Tween-80, higher T/C = larger tumour.

On to `O=[N+]([O-])c1ccc(CSc2ncnc3c2ncn3C2OC(COP(=O)(O)O)C(O)C2O)cc1` (stereo unspecified), for which the T/C is 139 % of control (T/C endpoint: median survival time, dose: 108.0 mg/kg/injection, schedule: Q01DX005 (ip), vehicle: saline, evaluated on day 16, higher T/C = longer survival); 126 % of control (T/C endpoint: median survival time, dose: 108.0 mg/kg/injection, schedule: Q01DX005 (ip), vehicle: saline, evaluated on day 17, higher T/C = longer survival); 132 % of control (T/C endpoint: median survival time, dose: 108.0 mg/kg/injection, schedule: Q01DX005 (ip), vehicle: saline, evaluated on day 47, higher T/C = longer survival); 119 % of control (T/C endpoint: median survival time, dose: 108.0 mg/kg/injection, schedule: Q01DX005 (ip), vehicle: saline, evaluated on day 49, higher T/C = longer survival); 123 % of control (T/C endpoint: median survival time, dose: 180.0 mg/kg/injection, schedule: Q01DX005 (ip), vehicle: saline, evaluated on day 16, higher T/C = longer survival); 149 % of control (T/C endpoint: median survival time, dose: 180.0 mg/kg/injection, schedule: Q01DX005 (ip), vehicle: saline, evaluated on day 17, higher T/C = longer survival). The T/C is, setting by setting: (T/C endpoint: median survival time, dose: 180.0 mg/kg/injection, schedule: Q01DX005 (ip), vehicle: saline, evaluated on day 47, higher T/C = longer survival) 123 % of control [7 of 8 alive on day 47]; (T/C endpoint: median survival time, dose: 180.0 mg/kg/injection, schedule: Q01DX005 (ip), vehicle: saline, evaluated on day 49, higher T/C = longer survival) 146 % of control; (T/C endpoint: median survival time, dose: 300.0 mg/kg/injection, schedule: Q01DX005 (ip), vehicle: saline, evaluated on day 16, higher T/C = longer survival) 152 % of control [6 of 7 alive]; (T/C endpoint: median survival time, dose: 300.0 mg/kg/injection, schedule: Q01DX005 (ip), vehicle: saline, evaluated on day 17, higher T/C = longer survival) 164 % of control; (T/C endpoint: median survival time, dose: 300.0 mg/kg/injection, schedule: Q01DX005 (ip), vehicle: saline, evaluated on day 49, higher T/C = longer survival) 162 % of control. Moreover, the survivor count runs as follows: (T/C endpoint: median survival time, dose: 300.0 mg/kg/injection, schedule: Q01DX005 (ip), vehicle: saline, higher T/C = longer survival) 4 of 8 on day 47; (T/C endpoint: median survival time, dose: 500.0 mg/kg/injection, schedule: Q01DX005 (ip), vehicle: saline, higher T/C = longer survival) 0 of 8 on day 47 and 1 of 8 on day 49.

As to `NC(=O)c1csc(C2OC(CO)C(O)C2O)n1` (stereo unspecified), the T/C (T/C endpoint: median tumor weight (est.), dose: 37.5 mg/kg/injection, schedule: Q01DX009 (ip), vehicle: saline, evaluated on day 17, higher T/C = larger tumour) is 133 % of control. Further, the survivor count (T/C endpoint: median tumor weight (est.), dose: 600.0 mg/kg/injection, schedule: Q01DX009 (ip), vehicle: saline, higher T/C = larger tumour) is on record as 6 of 10 on day 17.

For `Cc1ccc(C(=O)N=Nc2c(Cl)c(O)c3ccccc3c2O)cc1`, the survivor count reads like this: (T/C endpoint: median survival time, dose: 50.0 mg/kg/injection, schedule: Q01DX009 (ip), vehicle: saline with Tween-80, higher T/C = longer survival) 7 of 10 on day 9; under setting [1], 9 of 10 on day 9; under setting [2], 1 of 10 on day 9; (T/C endpoint: median tumor weight (est.), dose: 50.0 mg/kg/injection, schedule: Q01DX009 (ip), vehicle: saline with Tween-80, higher T/C = larger tumour) 6 of 10 on day 20; under setting [3], 1 of 10 on day 20.

As for `O=C1c2c(O)ccc(O)c2C(=O)c2c(NCCNCCO)ccc(NCCNCCO)c21`, the survivor count by setting is: (T/C endpoint: median tumor weight (est.), dose: 2.0 mg/kg/injection, schedule: Q02DX011 (ip), vehicle: water, higher T/C = larger tumour) 1 of 10 on day 22; (T/C endpoint: median tumor weight (est.), dose: 4.0 mg/kg/injection, schedule: Q02DX011 (ip), vehicle: water, higher T/C = larger tumour) 0 of 10 on day 22.

For `Cc1[nH]c(=O)[nH]c(=O)c1N(CCF)CCCl`, the T/C was 128 % of control (T/C endpoint: median survival time, dose: 8.0 mg/kg/injection, schedule: Q01DX009 (ip), vehicle: saline with Tween-80, higher T/C = longer survival) and 134 % of control (2×) (T/C endpoint: median survival time, dose: 16.0 mg/kg/injection, schedule: Q01DX009 (ip), vehicle: saline with Tween-80, higher T/C = longer survival). Also, the survivor count by setting is: (T/C endpoint: median survival time, dose: 32.0 mg/kg/injection, schedule: Q01DX009 (ip), vehicle: saline with Tween-80, higher T/C = longer survival) 8 of 10 on day 9 and 10 of 10 on day 9; (T/C endpoint: median survival time, dose: 64.0 mg/kg/injection, schedule: Q01DX009 (ip), vehicle: saline with Tween-80, higher T/C = longer survival) 0 of 10 on day 9; (T/C endpoint: median tumor weight (est.), dose: 32.0 mg/kg/injection, schedule: Q01DX009 (ip), vehicle: saline with Tween-80, higher T/C = larger tumour) 0 of 10 on day 20; (T/C endpoint: median tumor weight (est.), dose: 64.0 mg/kg/injection, schedule: Q01DX009 (ip), vehicle: saline with Tween-80, higher T/C = larger tumour) 0 of 10 on day 20.

Take `O=C(O)CCCc1ccc(N(CCCl)CCCl)cc1`: the survivor count was 5 of 10 on day 16 (T/C endpoint: median survival time, dose: 6.0 mg/kg/injection, schedule: Q02DX033 (ip), vehicle: saline with Tween-80, higher T/C = longer survival); 0 of 10 on day 16 (T/C endpoint: median survival time, dose: 12.0 mg/kg/injection, schedule: Q02DX033 (ip), vehicle: saline with Tween-80, higher T/C = longer survival); 6 of 10 on day 16 (T/C endpoint: median survival time, dose: 24.0 mg/kg/injection, schedule: Q04DX006 (ip), vehicle: saline with Tween-80, higher T/C = longer survival).

Consider `NC(CSC(c1ccccc1)(c1ccccc1)c1ccccc1)C(=O)O` (stereo unspecified), for which the survivor count (T/C endpoint: mean tumor weight, dose: 140.0 mg/kg/injection, schedule: Q02DX011 (ip), vehicle: saline, higher T/C = larger tumour) is on record as 0 of 10 on day 22 and the survivor count (T/C endpoint: median tumor weight (est.), dose: 140.0 mg/kg/injection, schedule: Q02DX011 (ip), vehicle: saline, higher T/C = larger tumour) is recorded as 0 of 10 on day 22.

`CC1(CO)C(O)CCC2(C)C1CCC1CC3CC12CCC3(O)CO` (stereo unspecified): the T/C runs as follows: (T/C endpoint: median survival time, dose: 23.3 mg/kg/injection, schedule: Q01DX017 (ip), vehicle: Klucel (hydroxypropylcellulose) (HPC), higher T/C = longer survival) 129 % of control; (T/C endpoint: median survival time, dose: 23.3 mg/kg/injection, schedule: Q01DX017 (sc), vehicle: Klucel (hydroxypropylcellulose) (HPC), higher T/C = longer survival) 149 % of control; (T/C endpoint: median survival time, dose: 38.9 mg/kg/injection, schedule: Q01DX017 (ip), vehicle: Klucel (hydroxypropylcellulose) (HPC), higher T/C = longer survival) 135 % of control; (T/C endpoint: median survival time, dose: 64.8 mg/kg/injection, schedule: Q01DX017 (sc), vehicle: Klucel (hydroxypropylcellulose) (HPC), higher T/C = longer survival) 131 % of control; (T/C endpoint: median survival time, dose: 180.0 mg/kg/injection, schedule: Q01DX017 (oral), vehicle: Klucel (hydroxypropylcellulose) (HPC), higher T/C = longer survival) 125 % of control; (T/C endpoint: median survival time, dose: 232.0 mg/kg/injection, schedule: Q01DX017 (oral), vehicle: Klucel (hydroxypropylcellulose) (HPC), higher T/C = longer survival) 145 % of control. Also, the survivor count by setting is: (T/C endpoint: median survival time, dose: 180.0 mg/kg/injection, schedule: Q01DX017 (ip), vehicle: Klucel (hydroxypropylcellulose) (HPC), higher T/C = longer survival) 3 of 10 on day 9; (T/C endpoint: median survival time, dose: 180.0 mg/kg/injection, schedule: Q01DX017 (sc), vehicle: Klucel (hydroxypropylcellulose) (HPC), higher T/C = longer survival) 4 of 10 on day 9 and 8 of 10 on day 9; (T/C endpoint: median survival time, dose: 300.0 mg/kg/injection, schedule: Q01DX017 (oral), vehicle: Klucel (hydroxypropylcellulose) (HPC), higher T/C = longer survival) 10 of 10 on day 9; (T/C endpoint: median survival time, dose: 300.0 mg/kg/injection, schedule: Q01DX017 (sc), vehicle: Klucel (hydroxypropylcellulose) (HPC), higher T/C = longer survival) 4 of 10 on day 9; (T/C endpoint: median survival time, dose: 500.0 mg/kg/injection, schedule: Q01DX017 (oral), vehicle: Klucel (hydroxypropylcellulose) (HPC), higher T/C = longer survival) 8 of 10 on day 9; (T/C endpoint: median survival time, dose: 1000.0 mg/kg/injection, schedule: Q04DX005 (ip), vehicle: Klucel (hydroxypropylcellulose) (HPC), higher T/C = longer survival) 10 of 10.

Turning to `O=C1c2ccccc2C(=O)c2c(NCCNCCO)ccc(O)c21`, the survivor count (T/C endpoint: median survival time, dose: 225.0 mg/kg/injection, schedule: Q04DX003 (ip), vehicle: saline with Tween-80, higher T/C = longer survival) is given as 5 of 10 on day 49.

As for `O=C(O)c1c(CS(F)(F)(F)(F)F)cc(=O)oc1CS(F)(F)(F)(F)F`, the survivor count runs as follows: under setting [1], 9 of 10 on day 9; under setting [2], 0 of 10 on day 9; (T/C endpoint: median tumor weight (est.), dose: 100.0 mg/kg/injection, schedule: Q01DX009 (ip), vehicle: saline with Tween-80, higher T/C = larger tumour) 1 of 10 on day 20; under setting [3], 0 of 10 on day 20. The T/C (T/C endpoint: median tumor weight (est.), dose: 50.0 mg/kg/injection, schedule: Q01DX009 (ip), vehicle: saline with Tween-80, evaluated on day 20, higher T/C = larger tumour) was 139 % of control.

For the compound `COc1cc(C(C)(C)C)cc(OC)c1C(O)(c1c(OC)cc(C(C)(C)C)cc1OC)c1c(OC)cc(C(C)(C)C)cc1OC`, the survivor count runs as follows: (T/C endpoint: median survival time, dose: 200.0 mg/kg/injection, schedule: Q04DX003 (ip), vehicle: saline with Tween-80, higher T/C = longer survival) 6 of 10 on day 57; (T/C endpoint: median survival time, dose: 400.0 mg/kg/injection, schedule: Q04DX003 (ip), vehicle: saline with Tween-80, higher T/C = longer survival) 0 of 10 on day 57.

Turning to `O=c1[nH]c(=O)n(C2CC(O)C(CO)O2)cc1C(F)(F)F` (stereo unspecified), the survivor count is, setting by setting: (T/C endpoint: median tumor weight (est.), dose: 150.0 mg/kg/injection, schedule: Q02DX011 (ip), vehicle: saline, higher T/C = larger tumour) 4 of 10 on day 22; (T/C endpoint: median tumor weight (est.), dose: 300.0 mg/kg/injection, schedule: Q02DX011 (ip), vehicle: saline, higher T/C = larger tumour) 3 of 10 on day 22.

Take `COC(=N)CCCCC(=N)OC`: where the note is “T/C endpoint: median tumor weight (est.), dose: 200.0 mg/kg/injection, schedule: Q01DX009 (ip), vehicle: saline, evaluated on day 20, higher T/C = larger tumour”, the T/C was 127 % of control.

These data come from PubChem BioAssay AID288 (DTP/NCI, 2004).
